This passage reports binding results from publication PMC11600263.

Sequences of proteins named here, by UniProt entry; tags and fusion partners are left off.
UniProt P35222: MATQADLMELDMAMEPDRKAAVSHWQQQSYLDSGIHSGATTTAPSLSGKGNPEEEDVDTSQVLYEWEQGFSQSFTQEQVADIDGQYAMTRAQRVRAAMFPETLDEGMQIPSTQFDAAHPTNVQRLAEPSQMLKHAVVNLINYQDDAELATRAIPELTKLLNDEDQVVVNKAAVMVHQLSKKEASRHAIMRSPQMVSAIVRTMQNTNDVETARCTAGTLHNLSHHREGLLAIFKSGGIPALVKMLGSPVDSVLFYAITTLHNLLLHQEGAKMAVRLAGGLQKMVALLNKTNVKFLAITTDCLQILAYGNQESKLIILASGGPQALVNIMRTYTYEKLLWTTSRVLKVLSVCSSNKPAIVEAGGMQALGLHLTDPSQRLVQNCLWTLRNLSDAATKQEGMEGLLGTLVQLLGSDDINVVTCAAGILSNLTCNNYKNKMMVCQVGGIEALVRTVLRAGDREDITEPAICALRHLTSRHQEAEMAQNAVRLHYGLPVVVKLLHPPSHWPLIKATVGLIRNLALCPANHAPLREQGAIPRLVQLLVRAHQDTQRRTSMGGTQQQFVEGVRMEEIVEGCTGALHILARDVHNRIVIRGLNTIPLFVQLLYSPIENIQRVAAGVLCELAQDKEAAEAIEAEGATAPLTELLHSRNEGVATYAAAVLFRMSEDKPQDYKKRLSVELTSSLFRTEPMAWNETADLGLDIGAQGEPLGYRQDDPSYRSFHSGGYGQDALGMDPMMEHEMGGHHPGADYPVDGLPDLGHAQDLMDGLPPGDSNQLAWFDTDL

Results are given in words; binding and its absence hold for the method and conditions named. Binding seen in cells or lysates may run through a third protein. Some entries that bind do so weakly or less than the wild type.

Test [1] addresses T1, delta‐catenin (CTNND1) (human (endogenous in HDFα)) (UniProt O60716).
T1 sequence: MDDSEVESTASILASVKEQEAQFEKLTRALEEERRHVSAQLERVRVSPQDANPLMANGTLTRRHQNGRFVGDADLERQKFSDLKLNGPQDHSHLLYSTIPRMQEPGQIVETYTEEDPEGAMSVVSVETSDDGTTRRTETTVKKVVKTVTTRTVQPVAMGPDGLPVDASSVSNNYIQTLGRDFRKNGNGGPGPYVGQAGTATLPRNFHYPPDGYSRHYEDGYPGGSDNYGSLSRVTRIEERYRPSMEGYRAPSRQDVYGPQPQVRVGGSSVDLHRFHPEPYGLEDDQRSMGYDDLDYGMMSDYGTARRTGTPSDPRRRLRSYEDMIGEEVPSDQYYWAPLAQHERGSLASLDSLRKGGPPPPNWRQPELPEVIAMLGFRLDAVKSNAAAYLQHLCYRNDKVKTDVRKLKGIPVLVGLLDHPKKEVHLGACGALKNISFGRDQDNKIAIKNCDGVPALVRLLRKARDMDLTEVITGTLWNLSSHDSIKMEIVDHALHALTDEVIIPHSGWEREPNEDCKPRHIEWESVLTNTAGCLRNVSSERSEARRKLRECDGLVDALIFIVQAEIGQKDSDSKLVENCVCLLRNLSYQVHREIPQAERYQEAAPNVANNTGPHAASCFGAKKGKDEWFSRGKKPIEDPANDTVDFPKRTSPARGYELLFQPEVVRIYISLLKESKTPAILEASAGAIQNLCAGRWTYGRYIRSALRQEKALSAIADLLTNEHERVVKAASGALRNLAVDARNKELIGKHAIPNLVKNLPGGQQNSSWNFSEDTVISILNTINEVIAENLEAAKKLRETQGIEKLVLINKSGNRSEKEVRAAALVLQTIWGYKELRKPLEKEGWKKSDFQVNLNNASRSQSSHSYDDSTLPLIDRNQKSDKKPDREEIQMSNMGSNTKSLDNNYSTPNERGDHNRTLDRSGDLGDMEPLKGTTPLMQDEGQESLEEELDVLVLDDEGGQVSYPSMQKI
The test can be described thus: co-IP; endogenous proteins of HDFα cells treated with 7Ap (7Sp as control) in serum free medium for 2 h; 1 mg lysate, 2 μg antibody, 10 μL protein‐G beads; Western blot. A general note: In western blotting, separated proteins are transferred to a membrane and probed.

Test [2] has as its target PDGF receptor beta (PDGFRB) (human (endogenous in HDFα)) (UniProt P09619). The description is as above.

With “beta‐catenin (CTNNB) (from UniProt P35222 1-781)”, the binding entry in test [1] is recorded as “binds”.

On to “cyclin‐dependent kinase 6 (CDK6) (from UniProt Q00534 1-326) (enzyme)”, for which the binding entry in test [2] and in test [1] was “binds” throughout.
